## Library screen at single concentrations

Values are the deposited “Percent Effect”, in %.
The record does not define 0% and 100%; most values in the screen are far below 50% and negative numbers occur (in some assays of this library far below -100).
The compounds are a random part of those screened.

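Whole-parasite assay of Trypanosoma brucei over 72 hours; the read-out is not stated. Concentration: 30 µM. The record gives no direction; compounds that gave an IC50 in retests scored well above the rest, so higher reads as stronger inhibition. Values scatter widely below zero; nearly all retest evidence comes from the higher of the two concentrations used. Size under these conditions: about 64,000 compounds, about 940 of them at 50% or above in at least one test.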

CSCCN1CCC(NC(=O)c2cccc(C3CCCNC3)c2)CC1 (stereo unspecified) gave -25.05%.
Cc1ccc(S(=O)(=O)n2ccc(C(=O)NCC(F)(F)F)c2)cc1 gave -1.058%.
CNC(=O)Cc1ccccc1NC(=O)C1CCN(C2CCCCC2)C1 (stereo unspecified) gave -38.25%.
Cc1cc2ccccc2n1CCC(=O)N1CCC2(CC1)CNC(=O)C2 gave -36.45%.
Cc1cc(N2CCCC2c2cncc(N(C)C)n2)ncn1 (stereo unspecified) gave 0.4079%.
CCCN(C(=O)CN1CCN(CCO)CC1)C1=CCCCC1 gave 6.567%.
Cc1ccc(-n2ncc(C(=O)NCC3CCS(=O)(=O)C3)c2C)cc1 (stereo unspecified) gave 6.571%.
CCc1c(C)n(CC(C)=O)c2nc3ccccc3n2c1=O gave -1.46%.
COCCN1CCN(C(=O)C[C@@H]2C[C@@H](C(C)C)[C@H](CO)C=C2C)CC1 gave -17.05%.
CN(Cc1ccncc1)C(=O)Nc1cnn(CC(N)=O)c1 gave -6.188%.
COCCN1CCc2ncnc(NC3CC3)c2CC1 gave -90.7%.
O=C(O)C(F)(F)F.c1cncc(N2CCC3(CCCN(c4ccncc4)C3)CC2)c1 gave -3.759%.
O=C(C1CC1)N1CCc2c(ncnc2NCCc2nc3c(s2)CCC3)C1 gave -182.9%.
Cc1ccc(C(C)NCc2c(C(C)C)nn(C)c2N2CCOCC2)o1 (stereo unspecified) gave 12.4%.
CSc1ccc2cc(CN(C)CCCN(C)C)c(=O)[nH]c2c1 gave -50.35%.
Cc1ccc(CC(=O)N2CCCC(n3ccnc3C(C)C)C2)cn1 (stereo unspecified) gave 3.65%.
Cc1oc(-c2ccc(F)cc2F)nc1CN1C[C@@H](C)O[C@@H](C)C1 gave -17.68%.
CCn1nc(CC(C)C)cc1C(=O)NCCCOC gave -16.38%.
O=C(NC[C@H]1OC[C@@H](N(CC2CC2)CC2CC2)[C@@H]1O)Nc1ccccc1 gave -4.784%.
Cc1ccc(-c2cc(CN3CCCC(Cn4cncn4)C3)on2)cc1 (stereo unspecified) gave -8.704%.
CCc1ncncc1C(=O)NCCN1CCC(C)CC1 gave -14.18%.
Cc1cnc(CN2CCN(C(C)c3nc(C(C)C)no3)CC2)cn1 (stereo unspecified) gave 15.8%.
Cc1csc(C(Cc2ccsc2)NC(=O)CN(C)Cc2ccccn2)n1.Cl (stereo unspecified) gave 18.37%.
c1csc(N2CCCN(c3nccn4cnnc34)CC2)n1 gave -36.36%.
O=C(CCS(=O)(=O)C1CCCC1)NCCc1cccnc1 gave -5.864%.
Cc1nn(C)c(Cl)c1C1CCCN1Cc1nnc(C2CC2)n1C (stereo unspecified) gave 2.149%.
CC(C)Oc1ccc(-c2csc(Cn3ccc(=O)[nH]c3=O)n2)cc1 gave -0.9383%.
O=C1NCC2(CCCN(C(=O)c3ccc4c(c3)OCCO4)CC2)O1 (stereo unspecified) gave 0.1584%.
Cc1ncc(CN2CCC3(CC2)CC(=O)N(C)C3)cn1 gave -38.27%.
Cc1nc(CN2CCN(C)C(=O)C23CCN(C(C)C)CC3)cs1.O=C(O)C(F)(F)F gave -9.175%.
Cc1nc(CN2CCN(CCCc3ccccc3)CC2)no1 gave -11.59%.
O=c1c2c(ncn1CCO)nc1n2CCC1 gave 19.44%.
CN(CCCOc1ccccc1)C(=O)CN1CCc2cncnc2C1 gave 20.31%.
COc1ccc(C)cc1S(=O)(=O)N[C@H]1CN(C(C)=O)C[C@@H]1C1CC1 gave -58.23%.
COc1cccc2c1OCC(CNC(=O)Cn1ccnc1C)C2 (stereo unspecified) gave -191.1%.
CC(C)NC(=O)CC1(Cn2cnnn2)CCCCC1 gave -7.372%.
O=C(O)C(F)(F)F.[H][C@]12CN(Cc3nccs3)C[C@@]1([H])OCCN(C(=O)c1cccn1C)C2 gave -74.03%.
Cl.NC(Cc1nc(-c2ccccc2)no1)c1ccccc1 (stereo unspecified) gave 0.04222%.
O=C1N(Cc2ccc(F)cc2)CCCC12CCN(C1CCSCC1)C2 (stereo unspecified) gave -61.11%.
CN1C(=O)CCc2cc(NC(=O)C3CC(=O)N(CC4CC4)C3)ccc21 (stereo unspecified) gave 3.293%.
O=C(c1cnccn1)N1CCN(Cc2cccnc2)c2ncccc2C1 gave -10.45%.
COc1ncccc1NC(=O)C1CCS(=O)(=O)C1 (stereo unspecified) gave 3.579%.
Cc1nc(C2CCN(S(=O)(=O)c3ccc4c(c3)CCC4)CC2)n[nH]1 gave -44.11%.
CCS(=O)(=O)NC1CCCN(c2ccc(F)cc2C)C1=O (stereo unspecified) gave -9.472%.
COc1ccc(-c2cnc3c(c2)CN(C2CC2)C(=O)CCN3)cc1 gave -6.473%.
CCn1cc(CN2CCN(C(=O)c3cc(C)c(C)s3)CC2)c(C)n1 gave -10.95%.
Cc1nn(C)c(C)c1C1COCCN1C(=O)c1cnc(N)c(Cl)c1 (stereo unspecified) gave -2.785%.
Cc1nccc(N2CCN(C3CCOCC3)CC(C(=O)N(C)C)C2)n1 (stereo unspecified) gave -0.9623%.
CCn1cncc1CN1CCc2nc3sccc3c(=O)n2CC1 gave 9.497%.

3 of the entries, repeated:

structure	effect
CCn1nc(CC(C)C)cc1C(=O)NCCCOC	-16.38
CC(C)NC(=O)CC1(Cn2cnnn2)CCCCC1	-7.372
COc1cccc2c1OCC(CNC(=O)Cn1ccnc1C)C2 (stereo unspecified)	-191.1

Measurements from “University of Dundee, Small-Polar-MMV Screening Library” (2021), ChEMBL document CHEMBL3988442.